Experimental data reported in patent US20020151708A1.
Results are given in words; binding and its absence hold for the method and conditions named. Binding seen in cells or lysates may run through a third protein. Some entries that bind do so weakly or less than the wild type. Where a sequence is shown, tags or fusion partners need not be part of it.

Sequences of proteins named here, by UniProt entry; tags and fusion partners are left off. Residues count along the entry.
UniProt P0DMV8, residues 1-351: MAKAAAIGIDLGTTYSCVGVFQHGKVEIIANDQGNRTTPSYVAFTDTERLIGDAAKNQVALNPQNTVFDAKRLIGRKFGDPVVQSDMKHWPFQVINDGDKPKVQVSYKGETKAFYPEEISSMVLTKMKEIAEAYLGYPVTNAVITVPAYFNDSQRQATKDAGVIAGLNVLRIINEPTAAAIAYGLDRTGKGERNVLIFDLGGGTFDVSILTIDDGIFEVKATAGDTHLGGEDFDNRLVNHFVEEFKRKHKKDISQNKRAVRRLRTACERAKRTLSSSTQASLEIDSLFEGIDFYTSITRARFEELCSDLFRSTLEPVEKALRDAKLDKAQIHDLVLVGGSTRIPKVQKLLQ
UniProt Q27975, residues 2-641: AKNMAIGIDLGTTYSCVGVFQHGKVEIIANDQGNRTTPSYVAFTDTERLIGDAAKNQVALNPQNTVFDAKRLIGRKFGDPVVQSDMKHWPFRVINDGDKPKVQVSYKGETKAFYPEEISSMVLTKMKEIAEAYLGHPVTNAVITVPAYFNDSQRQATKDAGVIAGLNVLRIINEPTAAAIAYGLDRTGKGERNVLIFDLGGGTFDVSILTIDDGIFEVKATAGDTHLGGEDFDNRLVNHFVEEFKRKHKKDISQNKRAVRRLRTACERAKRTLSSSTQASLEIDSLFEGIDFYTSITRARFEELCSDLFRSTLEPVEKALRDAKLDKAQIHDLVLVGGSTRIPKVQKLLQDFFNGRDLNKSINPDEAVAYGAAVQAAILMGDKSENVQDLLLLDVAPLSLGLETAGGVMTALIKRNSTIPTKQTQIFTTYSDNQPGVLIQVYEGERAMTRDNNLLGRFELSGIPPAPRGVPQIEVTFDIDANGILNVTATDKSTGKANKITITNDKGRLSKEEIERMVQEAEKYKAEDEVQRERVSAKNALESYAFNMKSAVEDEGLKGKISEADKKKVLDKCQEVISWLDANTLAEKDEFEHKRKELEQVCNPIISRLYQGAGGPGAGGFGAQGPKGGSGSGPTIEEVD

Assays:
[1] = target: ATP-binding fragment of human Hsp70 (amino acids 1-351), expressed in bacteria without His-tag (human) (UniProt P0DMV8); test: Ni2+ affinity resin pull-down, Western blot with anti-6XHis and anti-Hsp70
[2] = target: Hsp70 from a crude homogenate of bovine heart (bovine) (UniProt Q27975); test: pull-down from bovine heart homogenate on Ni2+ resin loaded with His-tagged HspBP1
[3] = target: Hsp70 from a crude homogenate of bovine heart (bovine) (UniProt Q27975); test: pull-down from bovine heart homogenate on Ni2+ resin loaded with His-tagged HspBP1, Western blot and Coomassie staining

binding [1]: binds
binding [2]: binds
binding [3]: binds
B1: His-tagged HspBP1 (human heat-shock protein-binding protein 1, expressed in bacteria from pET28a) (protein, not shown: small tags and cut ends)
chain: MSDEGSRGSRLPLALPPASQGCSSGGGGGGSSAGGSGNSRPPRNLQGLLQMAITAGSEEPDPPPEPMSEERRQWLQEAMSAAFRGQREEVEQMKSCLRVLSQPMPPTAGEAEQAADQQEREGALELLADLCENMDNAADFCQLSGMHLLVGRYLEAGAAGLRWRAAQLIGTCSQNVAAIQEQVLGLGALRKLLRLLDRDACDTVRVKALFAISCLVREQEAGLLQFLRLDGFSVLMRAMQQQVQKLKVKSAFLLQNLLVGHPEHKGTLCSMGMVQQLVALVRTEHSPFHEHVLGALCSLVTDFPQGVRECREPELGLEELLRHRCQLLQQHEEYQEELEFCEKLLQTCFSSPADDSMDR
